# Reference: publication PMC10716449
# No constants are given. Whether binding was seen depends on the method and setting.
# Biological target: CENP-A (human), P49450
# Assay: cryo-EM structure; CENP-A nucleosomes on 601 B-Box DNA (6-10 uM) mixed with a 3-fold molar ratio of full-length CENP-B; 10 mM HEPES pH 7.5, 150 mM NaCl, 2 mM DTT; on ice 30 min; both purified
# Conditions: remark: other sources report otherwise
binder,measurement,value
"full-length CENP-B, P07199 1-599 (protein) MGPKRRQLTFREKSRIIQEVEENPDLRKGEIARRFNIPPSTLSTILKNKRAILASERKYGVASTCRKTNKLSPYDKLEGLLIAWFQQIRAAGLPVKGIILKEKALRIAEELGMDDFTASNGWLDRFRRRHGVVSCSGVARARARNAAPRTPAAPASPAAVPSEGSGGSTTGWRAREEQPPSVAEGYASQDVFSATETSLWYDFLPDQAAGLCGGDGRPRQATQRLSVLLCANADGSEKLPPLVAGKSAKPRAGQAGLPCDYTANSKGGVTTQALAKYLKALDTRMAAESRRVLLLAGRLAAQSLDTSGLRHVQLAFFPPGTVHPLERGVVQQVKGHYRQAMLLKAMAALEGQDPSGLQLGLTEALHFVAAAWQAVEPSDIAACFREAGFGGGPNATITTSLKSEGEEEEEEEEEEEEEEGEGEEEEEEGEEEEEEGGEGEELGEEEEVEEEGDVDSDEEEEEDEESSSEGLEAEDWAQGVVEAGGSFGAYGAQEEAQCPTLHFLEGGEDSDSDSEEEDDEEEDDEDEDDDDDEEDGDEVPVPSFGEAMAYFAMVKRYLTSFPIDDRVQSHILHLEHDLVHVTRKNHARQAGVRGLGHQS",binding,no binding
